# Assay results from PubChem BioAssay AID504834 (National Center for Advancing Translational Sciences (NCATS), 2011).
# The campaign covered roughly 320,000 compounds. About 22,000 (6.9%) were called active. This list was built around the results that the source calls inconclusive (neither active nor inactive); the mix of calls is not that of the screen. Calls follow the shape of the dose curve; as a rule, active = well fitted inhibition curve with a large enough effect; inconclusive = small, poorly fitted or top-dose-only effect, or another doubt; inactive = no such curve, though single readings can be large or run the other way. Where the call is inconclusive, the potency comes from a doubtful curve fit.
# Assay: Primary qHTS for delayed death inhibitors of the malarial parasite plastid, 96 hour incubation
# Settings: P. falciparum luciferase reporter growth; series mostly up to 28.7 µM; activity change, negative = inhibition: at the top concentration
# How it was run: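 P. falciparum expressing integrated firefly luciferase grown in erythrocytes (2% hematocrit, 0.05% parasitemia final) with compounds for 96 hours at 37 C, 5% CO2. Growth inhibition read as loss of luminescence after adding luciferase detection reagent.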
# % is scaled to controls: 0 for no effect and ±100 for the full control effect; potency is read from the fitted curve at half-maximal effect.
Structure (SMILES),"activity change, negative = inhibition",Potency
CCn1cc(C(=O)O)c(=O)c2cc(F)c(N3CCN(C(=S)NC(=O)c4ccc(F)c(F)c4)CC3)cc21,inactive: 1.48%,
CCOCCCNC(=O)C1CC(=O)N(C2CCCC2)C1 (centres undefined),,active: 11.7 µM
CCCCN1CCN=C1N(C)C,,"inconclusive: 18.5 µM [inhibitor, single point]"
COc1ccccc1CNCc1cc(Br)ccc1OC,,"inconclusive: 18.5 µM [inhibitor, single point]"
C=CCOc1ccc(/C(O)=C2\C(=O)C(=O)N(CCN(C)C)C2c2cccs2)cc1 (centres undefined),inactive: 26.5%,
CCCCN(C(=O)c1cccc(S(=O)(=O)N(C)c2ccc(C)cc2)c1)c1c(N)n(CCCC)c(=O)[nH]c1=O,,"inconclusive: 0.657 µM [inhibitor, full curve, poor fit]"
CC(C)C1Cc2c(sc3c2c(=O)n(-c2ccccc2)c2n[nH]c(=S)n32)CO1 (centres undefined),inactive: -8.51%,
C=CCOc1ccc(/C=C/C(=O)N2CCCN(S(=O)(=O)c3c(C)noc3C)CC2)cc1,,"inconclusive: 13.1 µM [inhibitor, single point]"
NC(=O)C(c1ccc(Cl)cc1)c1ccc(Sc2ccc(Cl)cc2)nn1 (centres undefined),inactive: -88.5%,
O=C(NNC(=O)c1ccc(F)cc1)C(=O)N1CCCCC1,,"inconclusive: 18.5 µM [inhibitor, single point]"
Fc1ccc(C(c2nnnn2CCc2ccccc2)N2CCCc3ccccc32)cc1 (centres undefined),,"inconclusive: 13.1 µM [inhibitor, partial curve, poor fit]"
CCc1cccc(C)c1NC(=O)CSc1nc(-c2ccccc2F)nc2nc[nH]c12,,"inconclusive: 3.7 µM [inhibitor, partial curve, poor fit]"
Cc1occc1C(=O)N/N=C/c1ccc2c(c1)OCO2,inactive: 440%,
CC1=NN(c2cccc([N+](=O)[O-])c2)C(=O)C1,,"inconclusive: 18.5 µM [inhibitor, single point]"
COc1ccc(C2C3C(=O)N(Cc4ccccc4)C(=O)C3ON2c2ccccc2)c(OC)c1OC (centres undefined),,"inconclusive: 18.5 µM [inhibitor, single point]"
Cc1cc(C)cc(C(=O)N(CCc2ccccc2)C2CC3CCC(C2)N3C)c1 (centres undefined),,"inconclusive: 11.7 µM [inhibitor, partial curve, poor fit]"
O=C(CN1CCC(NC(=O)C2CCCCC2)CC1)Nc1cccc(F)c1,inactive: 22%,
CN/C(=C\[N+](=O)[O-])NCCSCc1ccc(CN(C)C)o1,,"inconclusive: 19 µM [inhibitor, partial curve, poor fit]"
Nc1cccc(O)c1,,"inconclusive: 16.5 µM [inhibitor, single point]"
C/C(=N\OC(=O)c1ccc(Cl)cc1)c1sc(-c2ccccc2)nc1C,inactive: 204%,
O=C(Cc1cccc2ccccc12)N/N=C/c1ccc(F)cc1,,"inconclusive: 5.86 µM [inhibitor, partial curve]"
COc1ccc(C2=NN(C(=O)c3ccccc3)C(c3cccc([N+](=O)[O-])c3)C2)cc1 (centres undefined),,"inconclusive: 1.85 µM [inhibitor, partial curve, poor fit]"

Structure (SMILES),"activity change, negative = inhibition",Potency
CCOC(=O)C1CCCN(CCC(=O)Nc2ccc3c(c2)CCC3)C1 (centres undefined),,"inconclusive: 18.5 µM [inhibitor, single point]"
C[C@@H]1NC(=O)c2cc([N+](=O)[O-])cc(I)c2NCCCC[C@@H](C(N)=O)NC(=O)[C@H](CC(N)=O)NC1=O,,"inconclusive: 18.5 µM [inhibitor, single point]"
CCOC(=O)C1=C(N)OC(CCl)=C(C#N)C1c1ccsc1 (centres undefined),inactive: 30.4%,
Cc1ccccc1/C=C1\OC(=O)c2ccccc21,inactive: 30.4%,
CCc1nonc1NC(=O)c1oc2cc(C)c(Cl)cc2c1C,inactive: 14.8%,
COc1ccc(CCNC(=O)CCNS(=O)(=O)c2cccc(Cl)c2)cc1OC,,"inconclusive: 8.28 µM [inhibitor, partial curve, poor fit]"
CCOC(=O)c1cc(-c2ccccc2)sc1NC(=O)CSc1nnnn1C,,"inconclusive: 20.8 µM [inhibitor, partial curve, poor fit]"
COC(=O)c1cn(N(C)c2ncc(C(F)(F)F)cc2Cl)c(=O)c2ccccc12,,"inconclusive: 20.8 µM [inhibitor, single point]"
CCN(CC)CCOC(=O)c1ccc(NC(=O)COc2cc(=O)n(CC)c3ccccc23)cc1,,"inconclusive: 18.5 µM [inhibitor, single point]"
COc1ccc(C(=O)Nc2nc3ccc(S(C)(=O)=O)cc3s2)cc1OC,,active: 5.86 µM
CCn1c2ccccc2c2cc(NC(=O)c3ccc([N+](=O)[O-])cc3)ccc21,,"inconclusive: 18.5 µM [inhibitor, single point]"
Cc1ccsc1/C=N/NC(=O)CO,inactive: 13.8%,
CCOC(=O)c1cc2c(=O)n3ccccc3nc2n(C(C)C)c1=NC(=O)c1c(-c2ccccc2Cl)noc1C,,"inconclusive: 8.28 µM [inhibitor, partial curve]"
Cc1ccc(CCNC(=O)C2CCC(CNc3c(N4CCC(C)CC4)c(=O)c3=O)CC2)cc1 (centres undefined),,"inconclusive: 11.7 µM [inhibitor, single point]"
CC1CCCCC12NC(=O)N(CC(=O)NC(=O)Nc1ccc3c(c1)OCCO3)C2=O (centres undefined),inactive: 62.6%,
O=C1CCCN2N=C(SCC(=O)Nc3ccccc3C(F)(F)F)SC2=N1,,"inconclusive: 16.5 µM [inhibitor, single point]"
NC(=O)c1ccc(N2CCN(c3ccccc3F)CC2)c([N+](=O)[O-])c1,,"inconclusive: 0.0928 µM [inhibitor, full curve, poor fit]"
Cn1nnc2cc(NC(=O)Nc3cccc(Cl)c3)ccc21,inactive: 2.19%,
CCN(CC)S(=O)(=O)c1ccc(N(C)Cc2cccc(OC)c2OC)nc1,,"inconclusive: 18.5 µM [inhibitor, partial curve, poor fit]"
CSc1ccc(CNc2ncc(-c3cccc([N+](=O)[O-])c3)n2C)cc1,inactive: -8.09%,
Nn1c(SCc2ccc(F)cc2)nnc1-c1ccncc1,inactive: 23%,
Cc1ccc(-n2c(O)c(/C=C3/C(c4ccccc4)=Nc4ccccc43)c(=O)[nH]c2=O)cc1,,active: 7.38 µM
